Assay results reported in patent US4468383A, “Dimeric enkephalins” (The United States of America as represented by the …, priority 1982, dated 1984).
At least one peptide structure holds a part that was inferred or is arguable (an end, a ring closure or a residue).

By UniProt entry, the sequences of proteins in these tests, tags left out. Where a name states a change or a piece, a line headed by the entry shows the natural chain unless it says otherwise.
UniProt P33533, whole entry: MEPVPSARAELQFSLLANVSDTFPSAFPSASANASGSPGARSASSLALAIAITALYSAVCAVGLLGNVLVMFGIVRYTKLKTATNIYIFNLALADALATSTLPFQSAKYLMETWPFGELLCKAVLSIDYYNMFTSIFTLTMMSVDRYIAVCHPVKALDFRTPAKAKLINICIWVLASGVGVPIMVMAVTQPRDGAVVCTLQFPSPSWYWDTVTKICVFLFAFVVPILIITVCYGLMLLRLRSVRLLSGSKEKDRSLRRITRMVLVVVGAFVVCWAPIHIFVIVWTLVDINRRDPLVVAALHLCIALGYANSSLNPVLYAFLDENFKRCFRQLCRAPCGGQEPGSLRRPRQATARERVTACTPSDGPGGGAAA

Legend:
rat serum prolactin = experiment: Rat serum prolactin after intracerebroventricular injection; format: in vivo
[1] = Analgesic activity in vivo (standard hot plate and tail flick assays)
δ receptors = target: T1, δ receptors (Rattus norvegicus, UniProt P33533); experiment: Radioligand binding assay with 125I-DADLE in rat brain membranes
T1 construct: from tissue; host or cells: rat brain membranes

Structure (SMILES)	Rat serum prolactin (rat serum prolactin)	Analgesic potency in hot plate and tail flick assays [1]	Analgesic activity when administered in vivo ([1]; in vivo, intracerebroventricularly)	Affinity and selectivity for the delta opiate receptor (δ receptors)
CC(C)C[C@H](NC(=O)[C@H](Cc1ccccc1)NC(=O)CNC(=O)[C@@H](C)NC(=O)[C@@H](N)Cc1ccc(O)cc1)C(=O)NCCNC(=O)[C@H](CC(C)C)NC(=O)[C@H](Cc1ccccc1)NC(=O)CNC(=O)[C@@H](C)NC(=O)[C@@H](N)Cc1ccc(O)cc1 [DPE2]	produced a rise in rat serum prolactin	more potent than the corresponding monomer	exhibited analgesic activity	–
C[C@@H](NC(=O)[C@@H](N)Cc1ccc(O)cc1)C(=O)NCC(=O)N[C@@H](Cc1ccccc1)C(=O)NCCCCCCCCCCCCNC(=O)[C@H](Cc1ccccc1)NC(=O)CNC(=O)[C@@H](C)NC(=O)[C@@H](N)Cc1ccc(O)cc1 [DTE12]	–	good analgesic activity but was less potent than DPE2	–	particularly good affinity and selectivity for the delta opiate receptor
